The list shows only some results of the screen, not a fair sample: it is rich in T/C values a quarter to a half above the control, in often repeated tests (any T/C) and in doses without a T/C. Other doses and runs of a compound stand elsewhere. T/C is the treated group as % of the vehicle group. Some entries give survivors of the animals treated and no T/C: the source files T/C as zero there, which appears to mark a toxic dose or a test without result, not a measured value. Some survivor counts are full or nearly so, which does not show that the dose was tolerated: the source hardly ever lists a survival T/C far under the control, and the zero likely stands for such cases as well. Counts of survivors are from the toxicity check (mostly the fifth day) where no day follows; animals may have died later. Schedules are NCI's codes, taken here to give the interval after Q, in days (D) or hours (H), and the number of doses after X. Counts like (3×) stand for listed records that agree. Some entries hold several experiments; the results are listed from low to high. For survival time, this PubChem deposit counts one and a half times the control or more as active, and values a quarter to a half above the control carry no call in these data; other NCI protocols may use other cut-offs. Some T/C values are followed by the survivors on the day toxicity was checked, most often the fifth; without a count, all were alive then.

The test has as its system P388 leukemia ip, CD2F1 mice, survival T/C. The test can be described thus: NCI In Vivo Anticancer Drug Screen. Data for tumor model P388 Leukemia (intraperitoneal) in CD2F1 (CDF1) mice. The following applies: T/C endpoint: median survival time, higher T/C = longer survival.
[1] abbreviates: dose: 60.0 mg/kg/injection, schedule: Q01DX005 (ip), vehicle: saline with Tween-80.
[2] abbreviates: dose: 240.0 mg/kg/injection, schedule: Q01DX005 (ip), vehicle: saline with Tween-80.
Where [3] appears, read: dose: 400.0 mg/kg/injection, schedule: Q01DX001 (ip), vehicle: saline with Tween-80.
[4] abbreviates: dose: 200.0 mg/kg/injection, schedule: Q01DX005 (ip), vehicle: Klucel (hydroxypropylcellulose) (HPC).
[5] abbreviates: dose: 200.0 mg/kg/injection, schedule: Q01DX005 (ip), vehicle: saline with Tween-80.
Where [6] appears, read: dose: 120.0 mg/kg/injection, schedule: Q01DX005 (ip), vehicle: saline with Tween-80.
Where [7] appears, read: dose: 100.0 mg/kg/injection, schedule: Q01DX009 (ip), vehicle: saline with Tween-80.
[8] abbreviates: dose: 200.0 mg/kg/injection, schedule: Q01DX009 (ip), vehicle: saline with Tween-80.

For `C=C1C(=O)OC2C1CC(O)/C(C)=C\CCC1(C)OC21` (configuration not stated), the T/C was 130 % of control (dose: 60.0 mg/kg/injection, schedule: Q01DX009 (ip), vehicle: distilled water + Tween-80 + alcohol); 129 % of control (dose: 70.0 mg/kg/injection, schedule: Q01DX009 (ip), vehicle: distilled water + Tween-80 + alcohol); 125 % of control (dose: 80.0 mg/kg/injection, schedule: Q01DX009 (ip), vehicle: water); 148 % of control (dose: 90.0 mg/kg/injection, schedule: Q01DX009 (ip), vehicle: distilled water + Tween-80 + alcohol). Further, the survivor count was 2 of 4 (dose: 90.0 mg/kg/injection, schedule: Q01DX009 (ip), vehicle: water); 3 of 4 and 4 of 4 (dose: 100.0 mg/kg/injection, schedule: Q01DX009 (ip), vehicle: distilled water + Tween-80 + alcohol); 0 of 4 (dose: 200.0 mg/kg/injection, schedule: Q01DX009 (ip), vehicle: distilled water + Tween-80 + alcohol).

Regarding `CCOC(=O)C1=C(C(=O)c2ccc(C)cc2)C(c2c(Cl)cccc2Cl)C(C(=O)c2ccc(C)cc2)=C(C(=O)OCC)N1`, the survivor count under setting [1] is 6 of 6.

With `Cc1ccc(NC(=O)Cc2nc3ccccc3s2)c(C)c1`, the survivor count under setting [2] is given as 0 of 6.

With `Cc1cc(SSc2cc(C)nc(N)n2)nc(N)n1`, the survivor count under setting [3] was 3 of 6.

For the molecule `CCN(CC)Cc1ccccc1CO`, the survivor count (dose: 200.0 mg/kg/injection, schedule: Q01DX005 (ip), vehicle: saline) was 0 of 6.

Take `O=C(CCl)NC(Cc1ccsc1)C(=O)O` (configuration not stated): the survivor count (dose: 200.0 mg/kg/injection, schedule: Q01DX009 (ip), vehicle: saline) is listed as 3 of 6.

In the case of `C(=C\c1ccc2cc(C3=NCCN3)[nH]c2c1)/c1ccc(Oc2ccc(C3=NCCN3)cc2)cc1` (tested in a mixture with another compound), the survivor count is, setting by setting: (dose: 50.0 mg/kg/injection, schedule: Q01DX005 (ip), vehicle: Klucel (hydroxypropylcellulose) (HPC)) 5 of 6; (dose: 100.0 mg/kg/injection, schedule: Q01DX005 (ip), vehicle: Klucel (hydroxypropylcellulose) (HPC)) 0 of 6; under setting [4], 0 of 6.

Turning to `COc1ccc2c(c1)CCC(c1nc3ccc(C)cc3[nH]c1=O)C2=O` (configuration not stated), the survivor count under setting [2] is 2 of 6.

In the case of `CS(=O)(=O)OCCCCCCCCCCCN1CCOCC1`, under setting [5], the survivor count was 2 of 6.

In the case of `CCN(CC)CCNC(=O)c1ccc(NCN2C(=O)NC(c3ccccc3)(c3ccccc3)C2=O)cc1`, the survivor count under setting [2] was 5 of 6.

Turning to `COc1cc(C(=O)NOCc2cc3c(cc2Cl)OCO3)cc(OC)c1OC`, the survivor count (dose: 200.0 mg/kg/injection, schedule: Q04DX003 (ip), vehicle: saline sonified) is on record as 6 of 6.

For `O=[N+]([O-])c1cc(C(Nc2nncs2)Nc2nncs2)ccc1Cl`, under setting [6], the T/C was 137 % of control [5 of 6 alive] and the survivor count was 6 of 6. The T/C under setting [2] was 128 % of control.

Consider `CC1=Nc2c(C)noc2CC(c2ccccc2O)C1` (configuration not stated), for which, under setting [4], the survivor count is given as 1 of 6.

For the molecule `CC1Cc2ccc(OCCN(C)C)cc2C1=O` (configuration not stated), under setting [5], the survivor count is recorded as 0 of 5.

With `COc1cccc2c1C(=O)c1c(O)c3c(c(O)c1C2=O)C[C@@](O)(/C(C)=N/NC(=O)c1ccc(-c2ccccc2)cc1)C[C@@H]3OC1CC(N)C(O)C(C)O1` (some centres not stated), the T/C is, setting by setting: (dose: 0.25 mg/kg/injection, schedule: Q01DX009 (ip), vehicle: water) 134 % of control; (dose: 0.5 mg/kg/injection, schedule: Q01DX009 (ip), vehicle: water) 138 % of control; (dose: 1.0 mg/kg/injection, schedule: Q01DX009 (ip), vehicle: water) 146 % of control; (dose: 3.13 mg/kg/injection, schedule: Q01DX001 (ip), vehicle: water) 145 % of control; (dose: 4.0 mg/kg/injection, schedule: Q01DX009 (ip), vehicle: water) 133 % of control; (dose: 12.0 mg/kg/injection, schedule: Q04DX003 (ip), vehicle: water) 145 % of control. Also, for the setting “dose: 48.0 mg/kg/injection, schedule: Q04DX003 (ip), vehicle: water”, the T/C was 135 % of control. Also, the survivor count is 5 of 6 (dose: 12.5 mg/kg/injection, schedule: Q01DX009 (ip), vehicle: water); 6 of 6 (2×) (dose: 16.0 mg/kg/injection, schedule: Q01DX009 (ip), vehicle: water); 5 of 6 (dose: 25.0 mg/kg/injection, schedule: Q01DX009 (ip), vehicle: water); 5 of 6 (dose: 50.0 mg/kg/injection, schedule: Q01DX001 (ip), vehicle: water); 3 of 6 (dose: 50.0 mg/kg/injection, schedule: Q01DX009 (ip), vehicle: water); 0 of 6 (dose: 100.0 mg/kg/injection, schedule: Q01DX001 (ip), vehicle: water). For the same molecule, the survivor count (dose: 100.0 mg/kg/injection, schedule: Q01DX009 (ip), vehicle: water) is 1 of 6.

Turning to `O=C(Nc1ccc(Cc2ccc(NC(=O)C34CC5CC(CC(C5)C3)C4)cc2)cc1)C12CC3CC(CC(C3)C1)C2`, under setting [5], the survivor count is recorded as 5 of 5.

For `CN(C)CCNc1ccc(N)c2sc3ccccc3c(=O)c12`, the survivor count reads like this: under setting [7], 5 of 6; under setting [8], 0 of 6 and 2 of 6.

Regarding `COc1ccc(Oc2c(OC)cc(NCc3ccc(CN)cc3)c3ncccc23)cc1`, the survivor count is listed as 0 of 6 (dose: 50.0 mg/kg/injection, schedule: Q01DX009 (ip), vehicle: saline with Tween-80); 0 of 6 under setting [7]; 0 of 6 under setting [8].

Take `CCOC(=O)c1cc2c(cc1O)C1CC=C(C)[C@@H]3CCO[C@](OC)(C2)[C@]13C(=O)OC` (some centres not stated): the survivor count is given as 6 of 6 (dose: 100.0 mg/kg/injection, schedule: Q01DX001 (ip), vehicle: saline with Tween-80); 6 of 6 (dose: 200.0 mg/kg/injection, schedule: Q01DX001 (ip), vehicle: saline with Tween-80); 6 of 6 under setting [3].

As to `C(=C\c1ccnc2c1ccc1ccccc12)/c1ccccc1`, for the setting “dose: 50.0 mg/kg/injection, schedule: Q01DX005 (ip), vehicle: saline with Tween-80”, the survivor count is 5 of 5.

In the case of `O=C1C=CC(Nc2cccc([N+](=O)[O-])c2)C1Nc1cccc([N+](=O)[O-])c1` (configuration not stated), the survivor count runs as follows: under setting [1], 6 of 6; under setting [6], 6 of 6; under setting [2], 6 of 6.

As to `CC(C)CC1=C(C(=O)c2ccoc2)CC(C)C1` (configuration not stated), the survivor count (dose: 30.0 mg/kg/injection, schedule: Q01DX005 (ip), vehicle: Klucel (hydroxypropylcellulose) (HPC)) is listed as 6 of 6.

For the molecule `CCOC(=O)C1(C)CCCC1N` (configuration not stated), the survivor count (dose: 240.0 mg/kg/injection, schedule: Q01DX005 (ip), vehicle: saline) is given as 1 of 6.

`C[C@@](O)(/C=C/[C@H]1CC=CC(=O)O1)[C@@H](C[C@@H](O)\C=C/C=C\C=C\CO)OP(=O)(O)O`: the T/C was 140 % of control (dose: 3.12 mg/kg/injection, schedule: Q01DX005 (ip), vehicle: other); 142 and 143 % of control (dose: 6.25 mg/kg/injection, schedule: Q01DX005 (ip), vehicle: other). Besides, the survivor count was 3 of 5 (dose: 25.0 mg/kg/injection, schedule: Q01DX005 (ip), vehicle: other); 0 of 5 and 0 of 6 (dose: 50.0 mg/kg/injection, schedule: Q01DX005 (ip), vehicle: other).

`CCCCCC(C)N(C)C(=O)CNCC(C)C` (configuration not stated): the survivor count under setting [5] was 0 of 6.

Take `COc1ccc(OC)c(C2N(Cc3ccc(N(C)C)cc3)CCCN2Cc2ccc(N(C)C)cc2)c1`: the survivor count (dose: 200.0 mg/kg/injection, schedule: Q04DX003 (ip), vehicle: saline with Tween-80) is 6 of 6.

Take `CCCC(=O)NC1CCc2cc(OC)c(OC)c(OC)c2-c2ccc(OC)c(=O)cc21` (configuration not stated): the T/C (dose: 0.31 mg/kg/injection, schedule: Q01DX009 (ip), vehicle: Klucel (hydroxypropylcellulose) (HPC)) was 139 and 142 % of control. The survivor count was 3 of 5 (dose: 2.5 mg/kg/injection, schedule: Q01DX009 (ip), vehicle: Klucel (hydroxypropylcellulose) (HPC)) and 0 of 5 (dose: 5.0 mg/kg/injection, schedule: Q01DX009 (ip), vehicle: Klucel (hydroxypropylcellulose) (HPC)).
